Among all 330,000 compounds or so, about 7,700 (2.3%) were called active. This list was built around the results that the source calls inconclusive (neither active nor inactive); the mix of calls is not that of the screen. Calls follow the shape of the dose curve; as a rule, active = well fitted inhibition curve with a large enough effect; inconclusive = small, poorly fitted or top-dose-only effect, or effect the other way; inactive = flat fitted curve, though single readings scatter. Potencies beside an inconclusive call are fits to weak or partial responses and may not hold up.
Test: qHTS screen for small molecules that inhibit ELG1-dependent DNA repair in human embryonic kidney (HEK293T) cells expressing luciferase-tagged ELG1; also: nearly all actives have a fitted effect of over 55% in size
Conditions: HEK293T ELG1-luciferase reporter, luminescence, 16 h, DNA damage induced by 5-fluorouridine; series mostly up to 46.1 µM
Method in brief: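 In this reporter screen, reduction of luminescence relative to DMSO vehicle indicated activity. Compounds and 5-fluorouridine were added together to 2,000 cells per well, incubated for 16 hr at 37 °C, then developed with ONE-Glo.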
With `CCn1c(C)nc2cc(C(=O)OCCC(F)(F)F)ccc21` the Potency was inconclusive: 20.6 µM [activator, partial curve].
With `O=C(c1cc(C2CC2)on1)N1CCCC(N2CCN(c3cccc(C(F)(F)F)c3)CC2)C1` (configuration not stated) the Potency was inconclusive: 9.2 µM [inhibitor, partial curve, poor fit].
With `CC(C)N(Cc1ccccc1)C(=O)COC(=O)/C=C/c1cnc2ccccc2n1` the Potency was “inactive”.
In the case of `CCOc1ccc2nc(N3CCC(C(=O)N4CCN(c5ccccn5)CC4)CC3)sc2c1`, the Potency is reported as active: 11.6 µM.
With `Cc1ccc(OCCN2CCN(C(=O)CCC(=O)Nc3nnc(C)s3)CC2)cc1` the Potency was “inactive”.
For `CC(C)OC(=O)CSc1nnnn1-c1ccc2c(c1)OCCO2`, the Potency was inconclusive: 20.6 µM [activator, partial curve].
With `O=C(NC(=S)NCc1cccnc1)c1cccc2ccccc12` the Potency was inconclusive: 23.1 µM [inhibitor, partial curve, poor fit].
In the case of `c1coc(CN2CNc3nc4ccccc4n3C2)c1`, the Potency is reported as inconclusive: 29.1 µM [activator, single point].
In the case of `CNC[C@@H](CC1CCCCC1)NC[C@H](CC(C)C)NCCc1cccc(C(F)(F)F)c1`, the Potency is reported as inconclusive: 29.1 µM [inhibitor, single point].
For `Cc1ccc(C)c(NC(=O)c2ccccn2)c1`, the Potency was inconclusive: 20.6 µM [activator, partial curve].
With `Fc1cccc(Cl)c1CSc1ccc(-c2cccnc2)nn1` the Potency was inconclusive: 18.3 µM [activator, partial curve].
With `Cn1c(C(=O)NCCCN2CCN(c3ccccc3F)CC2)cc2c(=O)n(C)c3ccccc3c21` the Potency was inconclusive: 29.1 µM [inhibitor, single point].
With `CCOc1cccc(C(=O)Nc2ccccc2OC(F)F)c1` the Potency was inconclusive: 10.3 µM [activator, partial curve, poor fit].
With `C/C(=N\NC(N)=S)c1ccc(-n2ccnc2)cc1` the Potency was inconclusive: 29.1 µM [activator, single point].
With `Cc1ccc(SC[C@H](Cc2ccccc2)N2CCN(CC(C)C)CCC2=O)cc1` the Potency was “inactive”.
In the case of `Cc1ccc(SCC(=O)OC(C)C(=O)N2CCc3ccccc32)cc1` (configuration not stated), the Potency is reported as inconclusive: 0.231 µM [activator, single point].
For `Cc1cccc2sc(NC(=O)CSCc3ccccc3)nc12`, the Potency was “inactive”.
In the case of `CCN(CCCNC(=O)CCCn1c(=O)[nH]c2ccccc2c1=O)c1cccc(C)c1`, the Potency is reported as “inactive”.
With `O=C(CN1C(=O)NC(c2ccccc2)(c2ccccc2)C1=O)NCc1ccccc1` the Potency was “inactive”.
With `CCOc1ccc(C(=O)Nc2ccc(N3CCCC3)cc2)cc1` the Potency was inconclusive: 11.6 µM [activator, partial curve, poor fit].
With `COc1cccc(C(C(=O)NCc2ccco2)N(C(=O)Cn2nnc3ccccc32)C2CC2)c1OC` (configuration not stated) the Potency was “inactive”.
In the case of `COc1ccc(CCn2c(=N)c(C(=O)NC3CCCC3)cc3c(=O)n4ccccc4nc32)cc1OC`, the Potency is reported as inconclusive: 23.1 µM [inhibitor, partial curve, poor fit].
In the case of `COc1ccc(S(=O)(=O)CC(=O)c2cc3cc(Br)ccc3oc2=O)cc1`, the Potency is reported as “inactive”.
With `CNC(=O)c1ccsc1NC(=O)c1ccc(S(=O)(=O)N2CCc3ccccc32)cc1` the Potency was active: 18.4 µM.
With `COc1ccc(NC(=O)c2ccccc2C)cc1` the Potency was inconclusive: 6.31 µM [activator, partial curve].
With `Cc1cc(NC(=O)COC(=O)c2ccccc2NCCO)no1` the Potency was inconclusive: 20.6 µM [activator, partial curve].
In the case of `CCOc1ccc(NC(=O)CCCNC(=O)Cn2cnc3sc(C)c(C)c3c2=O)cc1`, the Potency is reported as inconclusive: 16.4 µM [activator, single point].
For `Cc1ccc(-c2cnc(NC(=O)CCC(=O)N3CCCCC3)n2C)cc1`, the Potency was “inactive”.
With `COc1ccc(-c2onc3ccc(Cl)cc23)cc1` the Potency was “inactive”.
In the case of `CCOc1ccccc1NC(=O)c1ccc2ccccc2c1`, the Potency is reported as “inactive”.
In the case of `Cc1noc(C)c1COC(=O)c1ccc(F)c(S(=O)(=O)N2CCCCC2)c1`, the Potency is reported as inconclusive: 18.3 µM [inhibitor, single point].
In the case of `O=C1CN(C(=O)c2ccc(Br)o2)C(c2ccc(F)cc2)c2cc(F)ccc2N1` (configuration not stated), the Potency is reported as inconclusive: 29.1 µM [inhibitor, single point].
With `O=C(c1cc(COc2ccc3ncccc3c2)on1)N1CCC(O)CC1` the Potency was inconclusive: 23.1 µM [inhibitor, partial curve].
In the case of `Cn1c(=S)n(C)c2ccccc21`, the Potency is reported as inconclusive: 23.1 µM [activator, partial curve].
For `COc1ccccc1C(=O)NCCC(=O)Nc1ccc(S(=O)(=O)N2C(C)CCCC2C)cc1` (configuration not stated), the Potency was inconclusive: 29.1 µM [inhibitor, single point].
In the case of `O=C(Nc1ccc2c(c1)COC2=O)c1ccc(Cl)c(Cl)c1`, the Potency is reported as inconclusive: 18.3 µM [activator, partial curve].
In the case of `Cc1sc2ncnc(SCc3ccco3)c2c1C`, the Potency is reported as inconclusive: 0.794 µM [activator, full curve].
In the case of `CCOC(=O)CSc1nc(-c2ccccn2)ncc1OC`, the Potency is reported as “inactive”.
In the case of `CC1CCC2(CC1)NC(=O)N(CC(=O)c1ccc(Cl)s1)C2=O` (configuration not stated), the Potency is reported as “inactive”.
For `COc1ccc2oc(C(=O)NC(C)(C)C)c(C)c2c1`, the Potency was inconclusive: 13 µM [activator, partial curve].
With `COc1ccccc1CNC(=O)C1CCN(S(=O)(=O)c2ccc(N3CCCC3=O)cc2)CC1` the Potency was “inactive”.
With `CCN(CC)S(=O)(=O)c1ccc(-c2nnc(SCC(N)=O)n2CC)cc1` the Potency was “inactive”.
With `Cc1cccc(C)c1OCC(=O)NNC(=O)c1ccoc1C` the Potency was “inactive”.
For `CC1CCCCN1C(=O)CNCc1ccc(F)cc1` (configuration not stated), the Potency was inconclusive: 25.9 µM [activator, single point].
For `COc1ccc(Cn2nnnc2C(CC(C)C)N2CCN(c3ccccc3)CC2)cc1` (configuration not stated), the Potency was inconclusive: 18.4 µM [inhibitor, single point].
For `COc1ccc2c(c1)c(C(=O)OCCN(C)C)c(C)n2C`, the Potency was inconclusive: 29.1 µM [inhibitor, single point].
With `CC(C)C(=O)Nc1cccc(C(=O)NCc2ccc3c(c2)OCO3)c1` the Potency was inconclusive: 1.46 µM [inhibitor, partial curve, poor fit].
With `CSc1nc(-c2ccc(C)cc2)nc(C(Cl)Cl)n1` the Potency was inconclusive: 5.17 µM [inhibitor, partial curve, poor fit].
For `O=C(CNC(=O)c1ccccc1Cl)NCCc1cccs1`, the Potency was inconclusive: 16.4 µM [activator, single point].
For `COc1ccccc1OC(C)C(=O)Nc1ccc2c(c1)n(C)c(=O)n2C` (configuration not stated), the Potency was inconclusive: 29.1 µM [activator, single point].
With `COc1cc(OC)c(NC(=O)c2ccc(Br)o2)cc1Cl` the Potency was inconclusive: 29.1 µM [inhibitor, partial curve, poor fit].
In the case of `CCN(CC)c1ncnc2c1cnn2Cc1ccc(Cl)cc1`, the Potency is reported as inconclusive: 29.1 µM [inhibitor, single point].
With `CC(C)CN(C(=O)COC(=O)c1cccnc1Cl)c1c(N)n(Cc2ccccc2)c(=O)[nH]c1=O` the Potency was “inactive”.
For `CN(CC(=O)Nc1cccc(F)c1)C(=O)c1cccc(S(=O)(=O)N2CCN(c3ccccc3)CC2)c1`, the Potency was inconclusive: 20.6 µM [inhibitor, partial curve].
For `COc1ccc(Nc2cc(Nc3ccccc3)ncn2)cc1`, the Potency was inconclusive: 1.46 µM [activator, full curve].
For `CN(c1ccc(O)cc1)S(=O)(=O)c1ccc2ccccc2c1`, the Potency was inconclusive: 13 µM [activator, partial curve].
In the case of `Cc1ccc(C=Nc2ccc(N(C)C)cc2)o1`, the Potency is reported as inconclusive: 4.11 µM [activator, full curve].
With `CCCCOc1ccc(-c2nnn(CCC(=O)N3CCOCC3)n2)cc1` the Potency was inconclusive: 14.6 µM [activator, partial curve].
For `O=C(N/C(=C\c1cccc([N+](=O)[O-])c1)C(=O)N1CCCCC1)c1cccs1`, the Potency was inconclusive: 29.1 µM [inhibitor, single point].
In the case of `Cc1cccc(NC(=S)N/N=C/c2cccn2Cc2ccc(F)cc2)c1`, the Potency is reported as inconclusive: 29.1 µM [inhibitor, single point].
In the case of `CC(C)CN1C(=O)C(=O)N(CC(=O)Nc2cc(Cl)ccc2Oc2ccccc2)C1=O`, the Potency is reported as inconclusive: 16.4 µM [inhibitor, partial curve].
For `Cc1ccc(-c2csc3ncn(/N=C/N(C)C)c(=O)c23)o1`, the Potency was “inactive”.
With `Cc1ccc(S(=O)(=O)N(CC(=O)NCC2CCCO2)Cc2ccc(F)cc2)cc1` (configuration not stated) the Potency was “inactive”.
For `CCCCCCOc1cccc(N)c1`, the Potency was inconclusive: 22.4 µM [activator, single point].
For `Cc1ccc(NCc2ccncc2)c(Br)c1`, the Potency was inconclusive: 18.3 µM [activator, partial curve, poor fit].
In the case of `CCCCc1ccc(NC(=O)Nc2cc(C)nn2C)cc1`, the Potency is reported as active: 4.11 µM.
For `S=C(Nc1ccccc1)N1CCN(C(=S)c2ccccc2)CC1`, the Potency was inconclusive: 13 µM [activator, partial curve, poor fit].
For `CCOC(=O)c1c(NC(=O)Cn2ccsc2=N)sc(C)c1C`, the Potency was “inactive”.
With `CSC1=NC(NCCCO)c2c(sc3c2CC(C)(C)OC3)N1` (configuration not stated) the Potency was active: 20.6 µM.
In the case of `Cc1ccc(C)c(Cn2nnc3c(=O)[nH]c(C4CCCN(C(=O)C5CCCCC5)C4)nc32)c1` (configuration not stated), the Potency is reported as “inactive”.
In the case of `COCC(=O)Nc1nnc(-c2ccc(C(C)(C)C)cc2)s1`, the Potency is reported as inconclusive: 5.17 µM [activator, partial curve].
In the case of `COc1ccc(C2CC(c3ccccc3Cl)=NN2c2ccc(S(N)(=O)=O)cc2)cc1` (configuration not stated), the Potency is reported as “inactive”.

— PubChem BioAssay AID504467 (National Center for Advancing Translational Sciences (NCATS), 2011)
Potency is read from the fitted curve at half-maximal effect.
